For at least one compound, name, drawing or mass did not settle the structure.
Columns and labels:
Type in all cases: in vivo
[1] = system: WT female mice on the C57B1/6 genetic background; assay: Example 3: efficacy of GLP-1 receptor agonists administered once per day (body weight, blood glucose, pancreas, small bowel, colon)
Method: All mice used in the study were 10-week old WT female mice on the C57B1/6 genetic background. The mice were maintained on regular drinking water and a standard rodent chow diet.
All injections were given once per day, and were administered ip using a 31 g insulin syringe with an 8 mm long needle in a final volume that ranged between 84-125 μl. The body weight and food intake were determined daily. Non-fasting blood glucose levels were measured using a hand-held glucometer on day 1 (prior to the first injection), day 8, and day 15 (day of sacrifice). […] The entire pancreas was removed and weighed. The entire small bowel was removed and then suspended vertically with a 1 g weight attached to the distal portion of the small bowel (to provide uniform tension). Small bowel length was determined using a vertical ruler and then flushed with ice-cold PBS, blotted dry and weighed. The entire colon was removed and colon length was determined by measuring with a ruler placed on a horizontal surface. The colon was then flushed with ice-cold PBS, blotted dry and weighed. All statistical analyses were done by one-way ANOVA with Bonferroni's Multiple Comparison Post-Test using GraphPad Prism software (version 4), n=4 mice/group.

[2] = system: WT female C57B1/6 mice on regular drinking water or 3% DSS (DSS-induced colitis); assay: Example 4: DSS-induced colitis model, Liraglutide 75 ug/kg BID s.c. for one week; settings: Liraglutide 75 μg/kg BID s.c. 1 week vs PBS
[3] = system: wild-type female C57B1/6 mice on regular drinking water or 3% DSS; assay: Example 5: low dose Liraglutide (25 or 50 μg/kg BID s.c., one week), small intestine size, body weight, blood glucose; settings: Liraglutide 50 μg/kg BID s.c. 7 days vs PBS, C57B1/6, regular water or 3% DSS
Method: All mice were 10-week old wild-type female mice on the C57B1/6 genetic background. Mice were maintained on a standard rodent chow diet and either regular drinking water or water supplemented with 3% DSS for a total of one week. Mice were given subcutaneous injections of either phosphate buffered saline (PBS), 25 μg/kg of Liraglutide (LG) BID, or 50 μg/kg of LG BID for one week. PBS or LG injections commenced at the same time that mice were started on normal drinking water or water supplemented with 3% DSS. Injections were administered using a 31 g insulin syringe with an 8 mm long needle and in a final volume that ranged between 85-110 μl. Body weights, food intake, and water intake were determined daily. […] Small intestines were removed and then suspended vertically with a 1 g weight attached to the distal portion of the small intestine (to provide uniform tension). Small intestine length was determined using a vertical ruler. Luminal contents were removed from the small bowel by flushing with ice-cold PBS using a 60 cc syringe attached to a p200 pipette tip. Mesenteric fat and pancreatic tissue were dissected away from the small intestine. The small intestine was blotted to remove excess PBS and then weighed. Statistical analyses were done by one-way ANOVA with Bonferroni's Multiple Comparison Post-Test using GraphPad Prism software (version 4).
All mice were 10-week old female wild-type mice on the C57B1/6 genetic background. Mice were maintained on a standard rodent chow diet and either regular drinking water or water supplemented with 3% DSS for a total of one week. Mice were given s.c. injections of either phosphate buffered saline (PBS), 25 μg/kg of Liraglutide (LG) BID, or 50 μg/kg of LG BID for one week. PBS or LG injections commenced at the same time that mice were started on normal drinking water or water supplemented with 3% DSS. Injections were administered using a 31 g insulin syringe with an 8 mm long needle and in a final volume that ranged between 85-110 μl. Body weights, food intake, and water intake were determined daily. Blood glucose levels were measured on the first day of the study and just prior to sacrifice. Statistical analyses were done by one-way ANOVA with Bonferroni's Multiple Comparison Post-Test using GraphPad Prism software (version 4). n=5 mice/group.

[4] = system: female wild-type mice on the Balb/c genetic background; assay: Example 5: low dose Liraglutide (30 or 50 μg/kg BID s.c., one week), large intestine size and body weight, Balb/c mice; settings: for increase large intestine length / increase large intestine weight: Balb/c
Description: FIGS. 18A-18D illustrate that doses of Liraglutide lower than those that have shown glucose lowering or cardioprotective effects in rodents [Rolin B, et al, 2002; Noyan-Ashraf M H, et al, 2009; Porter D W et al, 2010; Irwin N et al, 2010; and Gault V A et al, 2011] are still able to increase large intestine size (large intestine weight and length) in wild-type mice compared to PBS-treated mice. FIGS. 18A-18D also illustrate that Liraglutide treatment can increase large intestine size (large intestine length and weight) in wild-type mice on the Balb/c genetic background compared to control-treated mice. All mice were 9-week old female wild-type mice on the Balb/c genetic background. All mice were maintained on a standard rodent chow diet and normal drinking water. Mice were given s.c. injections of either phosphate buffered saline (PBS), 30 μg/kg of Liraglutide (LG) BID, or 50 μg/kg of LG BID for one week. Injections were administered using a 31 g insulin syringe with an 8 mm long needle and in a final volume that ranged between 60-120 μl. Body weights and food intake were determined daily. […] The large intestine was removed and its length was determined by measuring with a ruler placed on a horizontal surface. Luminal contents were removed from the large intestine by flushing with ice-cold PBS using a 60 cc syringe attached to a p200 pipette tip. Mesenteric fat was dissected away from the large intestine. The large intestine was blotted to remove excess PBS and then weighed. Statistical analyses were done by one-way ANOVA with Bonferroni's Multiple Comparison Post-Test using GraphPad Prism software (version 4).
All mice were 9-week old female wild-type mice on the Balb/c genetic background. All mice were maintained on a standard rodent chow diet and normal drinking water. Mice were given s.c. injections of either phosphate buffered saline (PBS), 30 μg/kg of Liraglutide (LG) BID, or 50 μg/kg of LG BID for one week. Injections were administered using a 31 g insulin syringe with an 8 mm long needle and in a final volume that ranged between 60-120 μl. Body weights and food intake were determined daily. Statistical analyses were done by one-way ANOVA with Bonferroni's Multiple Comparison Post-Test using GraphPad Prism software (version 4). n=5 mice/group.

[5] = Liraglutide 75 μg/kg ip once a day for 7 days vs PBS
[6] = Liraglutide 75 μg/kg ip once a day for 14 days vs PBS
[7] = Liraglutide 75 ug/kg ip once a day for two weeks vs PBS
[8] = Liraglutide 30 μg/kg BID s.c. 7 days vs PBS
[9] = Liraglutide 30 μg/kg BID s.c. 7 days vs PBS, listed as 3% DSS/Liguratide
[10] = Liraglutide 30 μg/kg BID s.c. 7 days vs PBS, listed as liraglutide
[11] = Liraglutide 30 μg/kg for 7 days (table row headed 3% DSS)
[12] = Liraglutide 50 μg/kg BID s.c. 7 days vs PBS
[13] = Liraglutide 50 μg/kg BID s.c. 7 days vs PBS, listed as 3% DSS/Liguratide
[14] = Liraglutide 50 μg/kg BID s.c. 7 days vs PBS, listed as liraglutide

CCCCCCCCCCCCCCCC(=O)N[C@@H](CCC(=O)NCCCC[C@H](NC(=O)[C@H](C)NC(=O)[C@H](C)NC(=O)[C@H](CCC(N)=O)NC(=O)CNC(=O)[C@H](CCC(=O)O)NC(=O)[C@H](CC(C)C)NC(=O)[C@H](Cc1ccc(O)cc1)NC(=O)[C@H](CO)NC(=O)[C@H](CO)NC(=O)[C@@H](NC(=O)[C@H](CC(=O)O)NC(=O)[C@H](CO)NC(=O)[C@@H](NC(=O)[C@H](Cc1ccccc1)NC(=O)[C@@H](NC(=O)CNC(=O)[C@H](CCC(=O)O)NC(=O)[C@H](C)NC(=O)[C@@H](N)Cc1cnc[nH]1)[C@@H](C)O)[C@@H](C)O)C(C)C)C(=O)N[C@@H](CCC(=O)O)C(=O)N[C@@H](Cc1ccccc1)C(=O)N[C@H](C(=O)N[C@@H](C)C(=O)N[C@@H](Cc1c[nH]c2ccccc12)C(=O)N[C@@H](CC(C)C)C(=O)N[C@H](C(=O)N[C@@H](CCCNC(=N)N)C(=O)NCC(=O)N[C@@H](CCCNC(=N)N)C(=O)NCC(=O)O)C(C)C)[C@@H](C)CC)C(=O)O [Liraglutide]
Increase colon length [1, 5]: do not have a significant effect and No
Weight of colon per unit length [1, 5]: do not have a significant effect and No
Increase colon length [1, 6]: do not have a significant effect and No
Increase colon weight [1, 6]: increase and Yes
Weight of colon per gram body weight [1, 6]: increase and Yes
Weight of colon per unit length [1, 6]: do not have a significant effect and No
Increase colon weight ([1]; Liraglutide 75 μg/kg ip once a day for 14 days vs PBS, listed as liraglutide): increase
small bowel length [1, 7]: significantly increases
total small bowel weight [1, 7]: increase
total small bowel weight per gram of total body weight [1, 7]: increase
weight of the small bowel per unit of small bowel length [1, 7]: increase
colon weight ([1]; liraglutide 75 ug/kg for 7 days): increase
increase small bowel length [2]: Yes
increase small bowel weight [2]: Yes
increase small bowel length (small intestine length) [3]: increase
increase small bowel weight (small intestine weight) [3]: increase
increase small bowel length (small intestine length) ([3]; listed as 3% DSS/Liguratide): Yes
increase small bowel weight (small intestine weight) ([3]; listed as 3% DSS/Liguratide): Yes
increase small bowel length (small intestine length) ([3]; listed as liraglutide): increase
increase large intestine length [4, 8]: increase
increase large intestine weight [4, 8]: increase
increase large intestine length [4, 9]: Yes
increase large intestine weight [4, 9]: Yes
increase large intestine length [4, 10]: increase
increase large intestine weight [4, 10]: increase
increase small bowel length [4, 11]: Yes
increase small bowel weight [4, 11]: Yes
increase large intestine length [4, 12]: increase
increase large intestine weight [4, 12]: increase
increase large intestine length [4, 13]: Yes
increase large intestine weight [4, 13]: Yes
increase large intestine length [4, 14]: increase
increase large intestine weight [4, 14]: increase

From patent US9168288B2, “Methods for treating disorders of the gastrointestinal tract using a GLP-1 agonist” (Mount Sinai Hospital, priority 2010, dated 2015)
